# Patent US20260209325A1, “SELECTIVE AND POTENT INHIBITORY ANTIBODIES OF MYOSTATIN ACTIVATION” (SCHOLAR ROCK, INC., priority 2022, published 2026)
# The chains behind the UniProt entries cited, without tags or fusion partners. Where a name states a change or a piece, a line headed by the entry shows the natural chain unless it says otherwise.
# UniProt O14793: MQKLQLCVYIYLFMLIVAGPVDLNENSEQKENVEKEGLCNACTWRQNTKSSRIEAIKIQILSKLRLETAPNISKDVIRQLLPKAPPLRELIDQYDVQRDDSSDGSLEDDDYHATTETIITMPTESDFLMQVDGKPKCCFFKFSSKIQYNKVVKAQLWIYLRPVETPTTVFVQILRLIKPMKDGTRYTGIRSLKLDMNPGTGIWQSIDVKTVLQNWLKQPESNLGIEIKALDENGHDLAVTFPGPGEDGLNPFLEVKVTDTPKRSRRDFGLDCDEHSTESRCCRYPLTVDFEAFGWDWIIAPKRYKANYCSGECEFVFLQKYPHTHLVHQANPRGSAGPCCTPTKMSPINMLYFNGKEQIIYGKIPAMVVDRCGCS
# These are yes or no findings as the source states them, for the method shown. Some entries that bind do so weakly or less than the wild type.
# B1: Ab116 (antibody, human IgG4 S228P, kappa, V domains shown)
# VH: QVQLVQSGAEVKKPGASVKVSCKVSGFTFSRPAIHWVRQAPGKGLEWMGGINPNAATTIYAQKFQGRVTMTEDTSTDTAYMELSSLKSEDTAVYYCARGRLLREWELRPYDTWGQGTLVTVSS
# VL: DIQMTQSPSSVSASVGDRVTITCRASQSIGKSLAWYQQKPGKAPKLLIYSASNLRSGVPSRFSGSGSGTDFTLTISSLQPEDFANYYCQQYRDVPPITFGGGTKVEIKR
# Target: human pro-myostatin (human) (UniProt O14793)
# Experiment: plate binding assay, OD 450 nm, antibody titrated 0.0003 to 100 nM, panel 'Hu-Pro-GDF-8 Plate 2' (method not described in the text)
binder,measurement,value
B1,binding,binds
